Values from PubChem BioAssay AID1224830 (NIAID, 2016)

- Test: 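Genes whose knock-down alters the TNF-alpha reporter response to LPS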 (primary screen)
- System: human THP-1 monocytic leukaemia cells, TNF dual-luciferase reporter clone, PMA-differentiated to macrophage-like cells
- Reagents: siRNA pool against human genes, 50 nM
- Duration: LPS for 4 h, given about 3 days after siRNA transfection
- Treatment: bacterial LPS (TLR4 ligand), 10 ng/ml
- Measurement: 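TNF firefly reporter luminescence divided by renilla, normalised to the plate median, then turned into a robust z-score for each replicate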
- Scale: TNF reporter robust z-score: higher = stronger TNF reporter response to LPS
- Active means: 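Each well counts as active if its z-score is over 2.8 or under -1.5; controls are left without a call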
The whole screen tested about 18,000 reagents; below is a random part of them. Of all reagents, about 2,900 (16%) got an active call. 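Calls are made per well; low scores hint the gene aids the LPS response, high scores that it dampens it.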 Repeated entries: four replicate wells of each siRNA pool.

| gene | TNF reporter robust z-score | call |
| --- | --- | --- |
| STYX (GeneID 6815) | -0.44 | inactive |
| STYX (GeneID 6815) | 0.44 | inactive |
| STYX (GeneID 6815) | -0.35 | inactive |
| STYX (GeneID 6815) | -0.38 | inactive |
| PHOX2A (GeneID 401) | -0.88 | inactive |
| PHOX2A (GeneID 401) | 0.75 | inactive |
| PHOX2A (GeneID 401) | -0.42 | inactive |
| PHOX2A (GeneID 401) | -0.63 | inactive |
| PNKP (GeneID 11284) | 1.22 | inactive |
| PNKP (GeneID 11284) | 0.78 | inactive |
| PNKP (GeneID 11284) | 2.46 | inactive |
| PNKP (GeneID 11284) | 1.06 | inactive |
| RORC (GeneID 6097) | 3.01 | active |
| RORC (GeneID 6097) | 2.05 | inactive |
| RORC (GeneID 6097) | 3.5 | active |
| RORC (GeneID 6097) | 2.63 | inactive |
| CRADD (GeneID 8738) | 0.26 | inactive |
| CRADD (GeneID 8738) | 0.49 | inactive |
| CRADD (GeneID 8738) | 0.59 | inactive |
| CRADD (GeneID 8738) | -0.85 | inactive |
| CPT1A (GeneID 1374) | 0.53 | inactive |
| CPT1A (GeneID 1374) | 1.83 | inactive |
| CPT1A (GeneID 1374) | 0.94 | inactive |
| CPT1A (GeneID 1374) | 2.88 | active |

Continued, starting with the last 4 of the part before.
| gene | TNF reporter robust z-score | call |
| --- | --- | --- |
| CPT1A (GeneID 1374) | 0.53 | inactive |
| CPT1A (GeneID 1374) | 1.83 | inactive |
| CPT1A (GeneID 1374) | 0.94 | inactive |
| CPT1A (GeneID 1374) | 2.88 | active |
| SLC44A1 (GeneID 23446) | 0.26 | inactive |
| SLC44A1 (GeneID 23446) | -0.62 | inactive |
| SLC44A1 (GeneID 23446) | -1.48 | inactive |
| SLC44A1 (GeneID 23446) | 0.84 | inactive |
| OSBPL1A (GeneID 114876) | 0.38 | inactive |
| OSBPL1A (GeneID 114876) | 0.95 | inactive |
| OSBPL1A (GeneID 114876) | 1.28 | inactive |
| OSBPL1A (GeneID 114876) | 1 | inactive |
| IWS1 (GeneID 55677) | -0.8 | inactive |
| IWS1 (GeneID 55677) | -0.91 | inactive |
| IWS1 (GeneID 55677) | -1.08 | inactive |
| IWS1 (GeneID 55677) | -0.48 | inactive |
| MACF1 (GeneID 23499) | -0.47 | inactive |
| MACF1 (GeneID 23499) | -1.02 | inactive |
| MACF1 (GeneID 23499) | -1.21 | inactive |
| MACF1 (GeneID 23499) | -0.46 | inactive |
| SLC35G1 (GeneID 159371) | -0.4 | inactive |
| SLC35G1 (GeneID 159371) | -0.03 | inactive |
| SLC35G1 (GeneID 159371) | 1.94 | inactive |
| SLC35G1 (GeneID 159371) | 0.55 | inactive |
| MEIS2 (GeneID 4212) | -0.22 | inactive |
| MEIS2 (GeneID 4212) | 0.6 | inactive |
| MEIS2 (GeneID 4212) | -0.27 | inactive |
| MEIS2 (GeneID 4212) | 0.25 | inactive |
